According to the supplement of paper PMC12024529:
Where a name gives a salt, the structure may show the parent alone. The list shows a part of the results. Part of the spread comes from offsets between plates or batches.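 The cells are HEK293 lines stably expressing B-domain-deleted factor VIII fused to Gaussia luciferase, either wild type or a misfolding-prone missense mutant. Each score is mean luminescence from triplicate wells minus the DMSO mean, divided by the DMSO standard deviation; a score of 2 or more counts as a hit, and low scores may reflect lower secretion or poorer cell viability.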

Assays:
HEK293 WT BDD-FVIII-Gluc = experiment: secreted FVIII-Gluc luciferase Z-score vs DMSO control; higher = more FVIII-Gluc secretion; settings: 5 µM; 24 h
[1] = system: HEK293 p.N1941S BDD-FVIII-Gluc; experiment: as above; settings: 5 µM; 24 h

Structure (SMILES)	secreted FVIII-Gluc luciferase Z-score (HEK293 WT BDD-FVIII-Gluc)	secreted FVIII-Gluc luciferase Z-score [1]
COc1cc2/c(=N/c3ccc(Br)cc3F)nc[nH]c2cc1OCC1CCN(C)CC1 [Vandetanib (Zactima)]	inactive: -3.48	inactive: -12.5
CC1(C)S[C@@H]2[C@H](NC(=O)[C@H](N)c3ccccc3)C(=O)N2[C@H]1C(=O)O [Ampicillin sodium]	inactive: -0.936	inactive: 0.831
Cc1cn([C@H]2C[C@H](N=[N+]=[N-])[C@@H](CO)O2)c(=O)[nH]c1=O [Zidovudine (Retrovir)]	inactive: 0.537	inactive: 0.00589
CC(CN(C)C)CN1c2ccccc2CCc2ccccc21 (configuration not stated) [Trimipramine Maleate]	active: 4.81	active: 2.13
CCC(=O)O[C@]1(C(=O)CCl)[C@@H](C)C[C@H]2[C@@H]3CCC4=CC(=O)C=C[C@]4(C)[C@@]3(F)[C@@H](O)C[C@@]21C [Clobetasol propionate]	active: 5.29	active: 7.8
CCCSc1ccc2[nH]c(NC(=O)OC)nc2c1 [Albendazole (Albenza)]	inactive: -6.77	inactive: -5.76
Nc1ccc(S(=O)(=O)Nc2ncccn2)cc1 [Sulfadiazine]	inactive: -3.19	inactive: -0.0659
CCCC(=O)OCOC(=O)C1=C(C)NC(C)=C(C(=O)OC)C1c1cccc(Cl)c1Cl (configuration not stated) [Cleviprex (Clevidipine)]	inactive: -0.331	inactive: -0.277
O=C(c1ccccc1)c1ccc2n1CCC2C(=O)O (configuration not stated) [Ketorolac (Toradol)]	inactive: 1.13	inactive: -3.27
Cn1nnc2c(C(N)=O)ncn2c1=O [Methazolastone]	inactive: -1.81	inactive: -5.44
Nc1nc(=O)[nH]cc1F [Flucytosine (Ancobon)]	inactive: -2.98	inactive: 0.438
Nc1ccn([C@@H]2O[C@H](CO)[C@@H](O)C2(F)F)c(=O)n1 [Gemcitabine (Gemzar)]	inactive: -8.96	inactive: -5.17
CC(C)C[C@H](NC(=O)[C@H](Cc1ccccc1)NC(=O)c1cnccn1)B(O)O [Bortezomib (Velcade)]	inactive: -5.34	inactive: -13.7
CC(NC(=O)Cc1cc(F)cc(F)c1)C(=O)NC(C(=O)OC(C)(C)C)c1ccccc1 (configuration not stated)	inactive: -1.24	inactive: -2.01
C#C[C@]1(O)CC[C@H]2[C@@H]3CCC4=CC(=O)CC[C@@H]4[C@H]3CC[C@@]21C [norethindrone]	inactive: -0.693	inactive: 0.825
CCN(CC)C(=O)C1(c2ccccc2)CC1CN (configuration not stated) [Milnacipran HCl]	inactive: 0.312	inactive: 0.0848

Given with bars between the fields: 2 of the compounds above.
Structure (SMILES) | secreted FVIII-Gluc luciferase Z-score (HEK293 WT BDD-FVIII-Gluc) | secreted FVIII-Gluc luciferase Z-score [1]
O=C(c1ccccc1)c1ccc2n1CCC2C(=O)O (configuration not stated) [Ketorolac (Toradol)] | inactive: 1.13 | inactive: -3.27
Cn1nnc2c(C(N)=O)ncn2c1=O [Methazolastone] | inactive: -1.81 | inactive: -5.44
